Data as given in PubChem BioAssay AID1259308 (NCATS, 2017)

- Purpose: 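Genes whose loss raises luciferase production in HEK293 cells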 (primary screen)
- Cell system: human HEK293 embryonic kidney cells stably expressing firefly luciferase (HEK-CMV-Luc2-Hygro)
- Knock-down reagent: single siRNA against human genes, 0.8 pmol siRNA per well
- Timing: 72 h
- Detection: 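Reporter luminescence and viable-cell signal on separate replicate plates, given as percent of non-targeting control and median/MAD z-scores, plus per-cell luciferase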
- Direction: total luciferase, z-score and total luciferase, % of control: higher = more reporter protein produced; luciferase per cell, z-score: higher = more reporter output per viable cell; viable cells, % of control: higher = more viable cells
- Rule for the call: 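An siRNA counts as active if its total luciferase robust z-score exceeds 3; genes with two or more such siRNAs out of three were retested with fresh siRNAs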
- Meaning of the calls: active = raised luciferase; inactive = no rise
The deposit covers about 59,000 reagents; shown is a random part of them. In the full data, about 1,510 (2.6%) were called active. 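Calls use total luciferase alone and ignore viability, so some active siRNAs may act by altering cell number.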 A number with no mark means an inactive call. The numbers tell different reagents against one gene apart.

| gene | reagent no. | total luciferase, z-score | total luciferase, % of control | luciferase per cell, z-score | viable cells, % of control |
| --- | --- | --- | --- | --- | --- |
| GHDC | 1 | 2.32 | 128 | 1.15 | 106 |
| GHDC | 2 | -0.0152 | 81.6 | 0.25 | 85.4 |
| GHDC | 3 | -0.583 | 70.3 | -0.852 | 98.3 |
| UNCX | 1 | 1.98 | 121 | 1.5 | 91.3 |
| UNCX | 2 | 0.61 | 94 | 0.223 | 99.1 |
| UNCX | 3 | -0.902 | 63.9 | -1.51 | 106 |
| H3C6 | 1 | -1.25 | 57 | -1.68 | 99.1 |
| H3C6 | 2 | 1.36 | 109 | 0.911 | 95.8 |
| H3C6 | 3 | 1.02 | 102 | 0.539 | 99.1 |
| SEPTIN2 | 1 | -1.67 | 48.7 | -2.14 | 95.6 |
| SEPTIN2 | 2 | 0.135 | 84.6 | 0.427 | 84.5 |
| SEPTIN2 | 3 | 0.203 | 85.9 | 0.556 | 82.9 |
| ICAM2 | 1 | 2.72 | 136 | 2.13 | 86.6 |
| ICAM2 | 2 | -0.0413 | 81.1 | -0.75 | 110 |
| ICAM2 | 3 | -0.126 | 79.4 | -0.19 | 93.2 |
| TRIML2 | 1 | 4.79 (active) | 177 | 3.23 | 84.6 |
| TRIML2 | 2 | -0.318 | 75.6 | -0.269 | 90.6 |
| TRIML2 | 3 | -1.23 | 57.5 | -0.552 | 74.3 |
| NRK | 1 | -0.0031 | 81.8 | -0.212 | 96.7 |
| NRK | 2 | -0.666 | 68.6 | -0.597 | 89.8 |
| NRK | 3 | -0.0836 | 80.2 | -0.101 | 92.1 |
| IQANK1 | 1 | -1.25 | 57 | -0.262 | 68.2 |
| IQANK1 | 2 | -0.686 | 68.2 | -0.263 | 81.7 |
| IQANK1 | 3 | 0.218 | 86.2 | 0.59 | 82.5 |
| ATP1B2 | 1 | -2.28 | 36.6 | -2.69 | 83.1 |
| ATP1B2 | 2 | -0.0422 | 81 | -0.451 | 102 |
| ATP1B2 | 3 | 0.96 | 101 | 1.14 | 83.7 |
| CCDC167 | 1 | -1.77 | 46.6 | -2.01 | 88.4 |
| CCDC167 | 2 | 3.91 (active) | 160 | 2.5 | 92.4 |
| CCDC167 | 3 | 0.29 | 87.7 | 0.885 | 77.6 |
| DDX47 | 1 | -1.29 | 56.2 | -1.24 | 87.1 |
| DDX47 | 2 | -1.46 | 52.8 | -1.74 | 93.2 |
| DDX47 | 3 | -0.717 | 67.6 | -0.664 | 90 |
| TPI1 | 1 | 0.097 | 83.8 | -0.153 | 97.5 |
| TPI1 | 2 | -1.25 | 57.1 | -0.131 | 66 |
| TPI1 | 3 | 0.638 | 94.6 | 0.579 | 90.8 |
| MRPS25 | 1 | 0.694 | 95.7 | 0.388 | 96.6 |
| MRPS25 | 2 | -0.674 | 68.5 | -1.26 | 107 |
| MRPS25 | 3 | -0.0595 | 80.7 | -1.04 | 119 |
| NFKBID | 1 | 0.0785 | 83.4 | -0.176 | 97.7 |
| NFKBID | 2 | -2.17 | 38.8 | -2.6 | 86 |
| NFKBID | 3 | 1.8 | 118 | 1.1 | 98.5 |
| MAGEA8 | 1 | 1.78 | 117 | 1.82 | 81.2 |
| MAGEA8 | 2 | -1.15 | 59 | -1.01 | 86 |
| MAGEA8 | 3 | -1.04 | 61.2 | -1.71 | 107 |
| ZNF501 | 1 | 1.04 | 103 | 0.307 | 106 |
| ZNF501 | 2 | 0.673 | 95.3 | 0.596 | 91 |
| ZNF501 | 3 | -0.475 | 72.4 | 0.864 | 64.5 |
| ECRG4 | 1 | -0.78 | 66.4 | -0.819 | 92 |
| ECRG4 | 2 | 0.846 | 98.7 | 0.431 | 98.5 |
| ECRG4 | 3 | -0.774 | 66.5 | -1.48 | 110 |
| SEL1L3 | 1 | -0.647 | 69 | -0.499 | 87.9 |
| SEL1L3 | 2 | 1.01 | 102 | 1.01 | 87.2 |
| SEL1L3 | 3 | -0.0123 | 81.6 | -0.101 | 93.7 |
| VSIG1 | 1 | 0.396 | 89.8 | 0.248 | 94 |
| VSIG1 | 2 | 0.176 | 85.4 | -0.0931 | 97.8 |
| VSIG1 | 3 | 1 | 102 | 1.83 | 70.4 |

6 entries from above, showing only “total luciferase, z-score”.
MRPS25 #3 = -0.0595
NFKBID #1 = 0.0785
NFKBID #2 = -2.17
NFKBID #3 = 1.8
MAGEA8 #1 = 1.78
MAGEA8 #2 = -1.15
